PubChem BioAssay AID686938, Drosophila RNAi Screening Center – 2013

- Aim: 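Looking for CRAC channel components and the factors controlling them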 (primary screen)
- Cells: Drosophila S2R+ cells
- Reagent: long dsRNA against Drosophila genes, about 0.25 µg dsRNA per well, roughly 10,000 cells
- Duration: 5 days of knock-down before the calcium assay
- Challenge: thapsigargin (SERCA pump blocker) to empty calcium stores; entry signal taken 4 min after adding it
- Measurement: 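Duplicate raw fluo-4 intensities per well from a plate reader, at rest and four minutes after thapsigargin emptied calcium stores; entry-to-rest ratio filled for only some wells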
- Direction: calcium entry signal: higher = stronger calcium signal after store depletion; resting calcium signal: higher = higher resting calcium signal
- Call rule: 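Called when the plate z-score of the entry-to-rest ratio, mean of duplicates, falls below −3; wells with low overall dye signal (Fmax z below −2) or more than five off-targets excluded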
- Meaning of the calls: active = strongly reduced calcium entry; inactive = no strong reduction
In all, the deposit lists about 23,000 reagents; shown is an unselected part of those with a known target gene and a result. Over the whole deposit, 75 (0.33%) got an active call. 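Raw plate signals without normalisation; calls rest on plate z-scores that were not deposited; ratio present for only 364 wells.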 The numbers tell different reagents against one gene apart. A plus sign joins genes that one reagent is predicted to hit. Not given: the dose of the treatment.

target | dsRNA no. | calcium entry signal, replicate 1 (fluorescence units) | calcium entry signal, replicate 2 (fluorescence units) | resting calcium signal, replicate 1 (fluorescence units) | resting calcium signal, replicate 2 (fluorescence units) | call
Rnmt (RNA guanine-7 methyltransferase) | 1 | 3.88e7 | 1.97e7 | 1.73e7 | 1.13e7 | inactive
CG42816 | 1 | 4.56e7 | 6.68e7 | 2.33e7 | 2.71e7 | inactive
speck | 1 | 4.29e7 | – | 2.23e7 | – | inactive
Sgs1 (Salivary gland secretion 1) | 1 | 2.88e7 | 3.50e7 | 1.43e7 | 1.58e7 | inactive
Sgs1 (Salivary gland secretion 1) | 2 | 5.06e7 | 3.60e7 | 2.53e7 | 1.66e7 | inactive
Or94b (Odorant receptor 94b) | 1 | 5.36e7 | 5.61e7 | 2.69e7 | 2.27e7 | inactive
CG16868 | 1 | 4.09e7 | 3.67e7 | 1.88e7 | 1.73e7 | inactive
chk (chaski) | 1 | 3.97e7 | – | 2.02e7 | – | inactive
CG9609 | 1 | 2.23e7 | 2.30e7 | 1.08e7 | 1.03e7 | inactive

Only “calcium entry signal, replicate 1 (fluorescence units)” (3 entries from above):
CG16868	4.09e7
chk (chaski)	3.97e7
CG9609	2.23e7

Continued:
target | dsRNA no. | calcium entry signal, replicate 1 (fluorescence units) | calcium entry signal, replicate 2 (fluorescence units) | resting calcium signal, replicate 1 (fluorescence units) | resting calcium signal, replicate 2 (fluorescence units) | call
CG15459 | 1 | 5.35e7 | 6.23e7 | 2.48e7 | 2.82e7 | inactive
CG15459 | 2 | 4.08e7 | 3.21e7 | 2.38e7 | 1.56e7 | inactive
CG31775 + CG42586 | 1 | 3.06e7 | 3.54e7 | 1.49e7 | 1.80e7 | inactive
CG31775 + CG42586 | 2 | 7.55e7 | 2.24e7 | 3.20e7 | 1.03e7 | inactive
sle (slender lobes) | 1 | 3.16e7 | 4.13e7 | 1.47e7 | 1.99e7 | inactive
mv (mauve) | 1 | 2.61e7 | 2.73e7 | 1.30e7 | 1.30e7 | inactive
mv (mauve) | 2 | 2.45e7 | 2.54e7 | 1.30e7 | 1.24e7 | inactive
CG10384 | 1 | 3.34e7 | 6.20e7 | 1.49e7 | 2.25e7 | inactive
CG10384 | 2 | 2.69e7 | 2.43e7 | 1.62e7 | 1.32e7 | inactive
CG9706 | 1 | 2.44e7 | 3.20e7 | 1.35e7 | 2.43e7 | inactive
Neurl4 (Neuralized E3 ubiquitin protein ligase 4) | 1 | 2.28e7 | 3.19e7 | 1.15e7 | 2.15e7 | inactive
CG13640 | 1 | 3.03e7 | 2.86e7 | 1.43e7 | 1.27e7 | inactive
flfl (falafel) | 1 | 2.39e7 | 2.04e7 | 1.04e7 | 1.11e7 | inactive
CG3308 | 1 | 5.07e7 | 3.94e7 | 2.16e7 | 1.68e7 | inactive
CtBP (C-terminal Binding Protein) | 1 | 2.32e7 | 2.35e7 | 1.27e7 | 1.34e7 | inactive
CG18233 | 1 | 3.63e7 | 5.91e7 | 1.80e7 | 2.36e7 | inactive
CG14356 | 1 | 2.11e7 | 5.19e7 | 1.10e7 | 6.67e7 | inactive
